Source: article PMC9601805, “Characterization of the Escherichia coli pyridoxal 5′‐phosphate homeostasis protein (YggS): Role of lysine residues in PLP binding and protein stability” (Protein Science : A Publication of the Protein Society, 2022)
Results are given in words; binding and its absence hold for the method and conditions named.

Columns and labels:
Assay in all cases: SEC; Superdex 200 10/300 GL, room temperature, 0.5 ml/min, 50 mM NaHEPES pH 7.5, 150 mM NaCl, 2.5 mM β-mercaptoethanol; protein prepared under reducing conditions; both purified
[1] = target: YggS K36A/K137A variant (E. coli) (UniProt P67080)
[2] = target: YggS K36A/K233A/K234A variant (E. coli) (UniProt P67080)
[3] = target: YggS K36A/K38A/K137A variant (E. coli) (UniProt P67080)
[4] = target: YggS K36A/K38A/K233A/K234A variant (E. coli) (UniProt P67080)
[5] = target: YggS K36A/K137A/K233A/K234A variant (E. coli) (UniProt P67080)
[6] = target: YggS K36A/K38A/K137A/K233A/K234A variant (E. coli) (UniProt P67080)
[7] = target: YggS K38A/K137A/K233A/K234A variant (E. coli) (UniProt P67080)
[8] = target: YggS K36A variant (E. coli) (UniProt P67080)
[9] = target: YggS K137A variant (E. coli) (UniProt P67080)
[10] = target: YggS ΔK233/K234 variant (E. coli) (UniProt P67080)
[11] = target: YggS K36A/K38A variant (E. coli) (UniProt P67080)

B1: YggS K36A/K137A variant (protein, UniProt P67080 1-234)
chain: MNDIAHNLAQVRDKISAAATRCGRSPEEITLLAVSATKPASAIAEAIDAGQRQFGENYVQEGVDKIRHFQELGVTGLEWHFIGPLQSNKSRLVAEHFDWCHTIDRLRIATRLNDQRPAELPPLNVLIQINISDENSASGIQLAELDELAAAVAELPRLRLRGLMAIPAPESEYVRQFEVARQMAVAFAGLKTRYPHIDTLSLGMSDDMEAAIAAGSTMVRIGTAIFGARDYSKK
binding [1]: no binding

B2: YggS K36A/K233A/K234A variant (protein, UniProt P67080 1-234)
chain: MNDIAHNLAQVRDKISAAATRCGRSPEEITLLAVSATKPASAIAEAIDAGQRQFGENYVQEGVDKIRHFQELGVTGLEWHFIGPLQSNKSRLVAEHFDWCHTIDRLRIATRLNDQRPAELPPLNVLIQINISDENSKSGIQLAELDELAAAVAELPRLRLRGLMAIPAPESEYVRQFEVARQMAVAFAGLKTRYPHIDTLSLGMSDDMEAAIAAGSTMVRIGTAIFGARDYSAA
binding [2]: no binding

B3: YggS K36A/K38A/K137A variant (protein, UniProt P67080 1-234)
chain: MNDIAHNLAQVRDKISAAATRCGRSPEEITLLAVSATAPASAIAEAIDAGQRQFGENYVQEGVDKIRHFQELGVTGLEWHFIGPLQSNKSRLVAEHFDWCHTIDRLRIATRLNDQRPAELPPLNVLIQINISDENSASGIQLAELDELAAAVAELPRLRLRGLMAIPAPESEYVRQFEVARQMAVAFAGLKTRYPHIDTLSLGMSDDMEAAIAAGSTMVRIGTAIFGARDYSKK
binding [3]: no binding

B4: YggS K36A/K38A/K233A/K234A variant (protein, UniProt P67080 1-234)
chain: MNDIAHNLAQVRDKISAAATRCGRSPEEITLLAVSATAPASAIAEAIDAGQRQFGENYVQEGVDKIRHFQELGVTGLEWHFIGPLQSNKSRLVAEHFDWCHTIDRLRIATRLNDQRPAELPPLNVLIQINISDENSKSGIQLAELDELAAAVAELPRLRLRGLMAIPAPESEYVRQFEVARQMAVAFAGLKTRYPHIDTLSLGMSDDMEAAIAAGSTMVRIGTAIFGARDYSAA
binding [4]: no binding

B5: YggS K36A/K137A/K233A/K234A variant (protein, UniProt P67080 1-234)
chain: MNDIAHNLAQVRDKISAAATRCGRSPEEITLLAVSATKPASAIAEAIDAGQRQFGENYVQEGVDKIRHFQELGVTGLEWHFIGPLQSNKSRLVAEHFDWCHTIDRLRIATRLNDQRPAELPPLNVLIQINISDENSASGIQLAELDELAAAVAELPRLRLRGLMAIPAPESEYVRQFEVARQMAVAFAGLKTRYPHIDTLSLGMSDDMEAAIAAGSTMVRIGTAIFGARDYSAA
binding [5]: no binding

B6: YggS K36A/K38A/K137A/K233A/K234A variant (protein, UniProt P67080 1-234)
chain: MNDIAHNLAQVRDKISAAATRCGRSPEEITLLAVSATAPASAIAEAIDAGQRQFGENYVQEGVDKIRHFQELGVTGLEWHFIGPLQSNKSRLVAEHFDWCHTIDRLRIATRLNDQRPAELPPLNVLIQINISDENSASGIQLAELDELAAAVAELPRLRLRGLMAIPAPESEYVRQFEVARQMAVAFAGLKTRYPHIDTLSLGMSDDMEAAIAAGSTMVRIGTAIFGARDYSAA
binding [6]: no binding

B7: YggS K38A/K137A/K233A/K234A variant (protein, UniProt P67080 1-234)
chain: MNDIAHNLAQVRDKISAAATRCGRSPEEITLLAVSKTAPASAIAEAIDAGQRQFGENYVQEGVDKIRHFQELGVTGLEWHFIGPLQSNKSRLVAEHFDWCHTIDRLRIATRLNDQRPAELPPLNVLIQINISDENSASGIQLAELDELAAAVAELPRLRLRGLMAIPAPESEYVRQFEVARQMAVAFAGLKTRYPHIDTLSLGMSDDMEAAIAAGSTMVRIGTAIFGARDYSAA
binding [7]: no binding

B8: YggS K36A variant (protein, UniProt P67080 1-234)
chain: MNDIAHNLAQVRDKISAAATRCGRSPEEITLLAVSATKPASAIAEAIDAGQRQFGENYVQEGVDKIRHFQELGVTGLEWHFIGPLQSNKSRLVAEHFDWCHTIDRLRIATRLNDQRPAELPPLNVLIQINISDENSKSGIQLAELDELAAAVAELPRLRLRGLMAIPAPESEYVRQFEVARQMAVAFAGLKTRYPHIDTLSLGMSDDMEAAIAAGSTMVRIGTAIFGARDYSKK
binding [8]: no binding

B9: YggS K137A variant (protein, UniProt P67080 1-234)
chain: MNDIAHNLAQVRDKISAAATRCGRSPEEITLLAVSKTKPASAIAEAIDAGQRQFGENYVQEGVDKIRHFQELGVTGLEWHFIGPLQSNKSRLVAEHFDWCHTIDRLRIATRLNDQRPAELPPLNVLIQINISDENSASGIQLAELDELAAAVAELPRLRLRGLMAIPAPESEYVRQFEVARQMAVAFAGLKTRYPHIDTLSLGMSDDMEAAIAAGSTMVRIGTAIFGARDYSKK
binding [9]: no binding

B10: YggS ΔK233/K234 variant (protein, UniProt P67080 1-234)
chain: MNDIAHNLAQVRDKISAAATRCGRSPEEITLLAVSKTKPASAIAEAIDAGQRQFGENYVQEGVDKIRHFQELGVTGLEWHFIGPLQSNKSRLVAEHFDWCHTIDRLRIATRLNDQRPAELPPLNVLIQINISDENSKSGIQLAELDELAAAVAELPRLRLRGLMAIPAPESEYVRQFEVARQMAVAFAGLKTRYPHIDTLSLGMSDDMEAAIAAGSTMVRIGTAIFGARDYS
binding [10]: no binding

B11: YggS K36A/K38A variant (protein, UniProt P67080 1-234)
chain: MNDIAHNLAQVRDKISAAATRCGRSPEEITLLAVSATAPASAIAEAIDAGQRQFGENYVQEGVDKIRHFQELGVTGLEWHFIGPLQSNKSRLVAEHFDWCHTIDRLRIATRLNDQRPAELPPLNVLIQINISDENSKSGIQLAELDELAAAVAELPRLRLRGLMAIPAPESEYVRQFEVARQMAVAFAGLKTRYPHIDTLSLGMSDDMEAAIAAGSTMVRIGTAIFGARDYSKK
binding [11]: no binding
